Measured values published in the supplement of paper PMC12823440, “Inhibitors supercharge kinase turnover through native proteolytic circuits” (Nature, 2025).
Structures can show the parent of a compound that is named as a salt. The list shows a part of the results. The calls rarely recur for the same compound in another form.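 Kinases, fused to nanoluciferase, were expressed in K562 cells; luminescence was measured every 4 h from 2 to 18 h as percent of control (DMSO = 100%, positive control = 0%). A time point is decreased if signal falls significantly (2 sigma). Hits were called by the authors by a rule that is not shown; the count of time points alone does not decide it.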

The chains behind the UniProt entries cited, without tags or fusion partners. Where a name states a change or a piece, a line headed by the entry shows the natural chain unless it says otherwise.
UniProt P07947, whole entry, looked up: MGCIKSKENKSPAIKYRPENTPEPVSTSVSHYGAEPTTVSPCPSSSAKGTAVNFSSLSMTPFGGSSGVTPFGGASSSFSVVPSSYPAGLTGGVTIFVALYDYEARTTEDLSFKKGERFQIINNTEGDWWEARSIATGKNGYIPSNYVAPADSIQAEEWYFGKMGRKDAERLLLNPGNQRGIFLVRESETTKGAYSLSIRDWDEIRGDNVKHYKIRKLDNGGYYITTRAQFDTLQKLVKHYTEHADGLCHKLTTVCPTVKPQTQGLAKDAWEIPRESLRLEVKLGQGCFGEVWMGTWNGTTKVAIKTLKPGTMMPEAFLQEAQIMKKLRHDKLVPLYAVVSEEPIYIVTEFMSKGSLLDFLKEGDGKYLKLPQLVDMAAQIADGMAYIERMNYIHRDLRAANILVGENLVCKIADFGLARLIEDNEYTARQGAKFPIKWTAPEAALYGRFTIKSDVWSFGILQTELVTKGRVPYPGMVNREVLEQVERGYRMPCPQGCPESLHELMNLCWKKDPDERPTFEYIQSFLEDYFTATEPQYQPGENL
UniProt P43403: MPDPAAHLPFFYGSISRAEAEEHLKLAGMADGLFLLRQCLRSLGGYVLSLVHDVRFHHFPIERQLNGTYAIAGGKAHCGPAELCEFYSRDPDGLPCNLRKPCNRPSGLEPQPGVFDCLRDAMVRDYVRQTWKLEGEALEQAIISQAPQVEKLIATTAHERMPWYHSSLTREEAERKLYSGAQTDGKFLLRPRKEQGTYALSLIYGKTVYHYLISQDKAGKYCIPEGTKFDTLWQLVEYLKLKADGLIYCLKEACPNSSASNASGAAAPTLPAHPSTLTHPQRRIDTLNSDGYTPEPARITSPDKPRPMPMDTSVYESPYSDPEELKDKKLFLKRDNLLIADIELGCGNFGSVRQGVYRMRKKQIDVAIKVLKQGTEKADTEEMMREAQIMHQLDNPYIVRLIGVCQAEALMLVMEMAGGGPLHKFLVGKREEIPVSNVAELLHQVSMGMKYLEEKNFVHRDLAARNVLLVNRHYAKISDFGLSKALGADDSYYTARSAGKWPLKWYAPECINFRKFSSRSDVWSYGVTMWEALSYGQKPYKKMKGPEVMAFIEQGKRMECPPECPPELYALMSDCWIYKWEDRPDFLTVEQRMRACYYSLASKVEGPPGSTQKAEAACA
UniProt P11802: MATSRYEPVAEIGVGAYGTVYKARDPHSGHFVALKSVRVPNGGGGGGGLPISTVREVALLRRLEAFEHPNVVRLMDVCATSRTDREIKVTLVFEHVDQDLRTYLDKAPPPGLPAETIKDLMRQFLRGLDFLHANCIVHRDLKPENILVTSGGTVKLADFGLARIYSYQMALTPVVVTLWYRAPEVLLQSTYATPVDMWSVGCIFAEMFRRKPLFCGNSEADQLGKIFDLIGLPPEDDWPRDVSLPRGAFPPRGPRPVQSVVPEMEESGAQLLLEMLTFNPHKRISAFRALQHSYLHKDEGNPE
UniProt P50613: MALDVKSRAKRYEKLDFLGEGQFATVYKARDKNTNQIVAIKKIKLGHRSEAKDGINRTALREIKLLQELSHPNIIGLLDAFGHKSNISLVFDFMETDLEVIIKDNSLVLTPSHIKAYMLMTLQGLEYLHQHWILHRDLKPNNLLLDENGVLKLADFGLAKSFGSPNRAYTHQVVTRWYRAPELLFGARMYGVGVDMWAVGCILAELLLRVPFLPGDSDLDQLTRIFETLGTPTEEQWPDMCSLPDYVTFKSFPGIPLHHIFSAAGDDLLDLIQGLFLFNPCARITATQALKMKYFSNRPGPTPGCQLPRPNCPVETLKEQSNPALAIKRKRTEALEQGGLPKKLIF
UniProt P50750, whole entry: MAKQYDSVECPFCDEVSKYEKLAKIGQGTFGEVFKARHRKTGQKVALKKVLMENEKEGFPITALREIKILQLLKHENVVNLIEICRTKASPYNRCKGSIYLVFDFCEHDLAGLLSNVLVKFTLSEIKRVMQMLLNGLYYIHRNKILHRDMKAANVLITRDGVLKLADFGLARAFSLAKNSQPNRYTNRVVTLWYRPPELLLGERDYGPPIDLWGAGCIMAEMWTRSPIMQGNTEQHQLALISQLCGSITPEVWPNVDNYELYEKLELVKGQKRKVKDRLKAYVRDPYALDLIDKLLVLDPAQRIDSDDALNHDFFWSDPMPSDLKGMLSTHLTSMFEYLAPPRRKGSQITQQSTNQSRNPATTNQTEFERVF

How the values were obtained:
Details in all cases: K562; 2-18 h
YES1 = YES1 (UniProt P07947); test: number of time points (of 5) at which kinase-Nluc abundance scored as decreased, DMSO-normalised (count); higher = more persistent destabilization
ZAK = ZAK (UniProt Q9NYL2); test: as above
ZAP70 = ZAP70 (UniProt P43403); test: as above
CDK4 = CDK4 (UniProt P11802); test: number of time points (of 4; 2 h point missing) at which kinase-Nluc abundance scored as decreased, DMSO-normalised (count); higher = more persistent destabilization
CDK7 = CDK7 (UniProt P50613); test: as above
CDK9 = CDK9 (UniProt P50750); test: as above

Row | Structure (SMILES) | number of time points (YES1) | number of time points (ZAK) | number of time points (ZAP70) | number of time points (CDK4) | number of time points (CDK7) | number of time points (CDK9)
1 | Nc1ncc(-c2ccc(C(=O)N3CCNCC3)cc2)nc1-c1ccc(C(F)(F)F)cc1 (10 µM) | 0 | 0 | 0 | 0 | 0 | 0
2 | CNC(=O)c1cc(Oc2ccc3nc(N[C@@H]4CCCC[C@H]4O)sc3c2)ccn1 (10 µM) | 0 | 0 | 0 | 0 | 0 | 0
3 | COc1ccc2c(c1)c(C1=C(c3c[nH]c4ccccc34)C(=O)NC1=O)cn2CCCN(C)C (10 µM) | 0 | 0 | 0 | 0 | 3 | 4
4 | O=c1nc(N2CCOCC2)oc2c(-c3cccc4c3sc3ccccc34)cccc12 (10 µM) | 0 | 0 | 0 | 0 | 0 | 0
5 | Cn1cc(-c2ccc(F)c(C(F)(F)F)c2)nc1C1CCN(c2ncnc3[nH]ncc23)CC1 (10 µM) | 0 | 0 | 0 | 0 | 0 | 0
6 | CCOc1ccccc1C=C1C(=O)Nc2ccccc21 (10 µM) | 0 | 0 | 0 | 0 | 0 | 0
7 | C[C@@H]1CCc2ncc(F)cc2[C@H]2CCCN2c2ccn3ncc(c3n2)C(=O)N1 [Selitrectinib] (10 µM) | 0 | 0 | 0 | 0 | 0 | 0
8 | O=C(O)c1ccc(-c2c[nH]c3ncc(-c4ccccc4)cc23)cc1C1CCCC1 (2.5 µM) | 0 | 0 | 0 | 0 | 1 | 0
9 | CCc1cccc(CC)c1NC(=O)c1nn(C)c2c1CCc1cnc(Nc3ccc(C(=O)NC4CCN(C)CC4)cc3OC(F)(F)F)nc1-2 (2 µM) | 0 | 0 | 0 | 0 | 0 | 0
10 | O=[N+]([O-])c1ccc(Sc2cccc[n+]2[O-])c2nonc12 (2.5 µM) | 0 | 0 | 0 | 0 | 0 | 0
11 | O=C(O)CCc1ccc(NCc2cccc(Oc3ccccc3)c2)cc1 (10 µM) | 0 | 0 | 0 | 0 | 0 | 0
12 | CCOC(=O)c1c2c3c(cccc3[nH]c1=O)C(=O)c1ccccc1-2 (10 µM) | 0 | 0 | 0 | 0 | 0 | 0
13 | CN(CC(=O)N(Cc1ccc(C2CCCCC2)cc1)c1ccc(C(=O)O)c(O)c1)S(=O)(=O)c1c(F)c(F)c(F)c(F)c1F (2.5 µM) | 0 | 0 | 0 | 0 | 0 | 0
14 | CN1CC[C@H](c2c(O)cc(O)c3c(=O)cc(-c4ccc(C(F)(F)F)cc4Cl)oc23)[C@H]1CO [(2S,3R)-Voruciclib (hydrochloride)] (2.5 µM) | 0 | 0 | 0 | 0 | 1 | 0
15 | CCCC(=O)Nc1nc2c(ncn2[C@@H]2O[C@@H]3COP(=O)(O)O[C@H]3[C@H]2OC(=O)CCC)c(=O)[nH]1 [Dibutyryl-cGMP (sodium)] (10 µM) | 0 | 0 | 0 | 0 | 0 | 0
16 | COc1ccc(CNc2nc(N(CCO)CCO)nc3c2ncn3C(C)C)cc1 (2.5 µM) | 0 | 0 | 0 | 0 | 0 | 0
17 | O=C(NOCCO)c1ccc2cncn2c1Nc1ccc(I)cc1F (10 µM) | 0 | 0 | 0 | 0 | 0 | 0
18 | Cc1nc(NC(=O)NCCc2nnn(CCF)n2)sc1-c1ccc(S(C)(=O)=O)c(F)c1 (10 µM) | 0 | 0 | 0 | 0 | 0 | 0
19 | CNC(=O)c1ccc(-c2cnc3cnc(-c4ccccc4)cn23)cc1 (10 µM) | 0 | 0 | 0 | 0 | 0 | 0
20 | C=CC(=O)Nc1cccc(-n2c(=O)cc(C)c3cnc(Nc4ccc(OCCN(C)C)cc4OC)nc32)c1 (10 µM) | 0 | 0 | 0 | 0 | 0 | 0
21 | CCOc1c([C@H](C)n2nc(C)c3c(N)ncnc32)cc(Cl)c(F)c1[C@@H]1CNC(=O)C1 [Parsaclisib (hydrochloride)] (10 µM) | 0 | 0 | 0 | 0 | 0 | 0
22 | CC(C)(C)C(=O)N1N=CC[C@H]1c1ccccc1 (10 µM) | 0 | 0 | 0 | 0 | 0 | 0
23 | Cc1ccc(-c2ncn(-c3ccc(Nc4nccc(-c5cccc(N6CCOCC6)c5)n4)cc3)n2)cn1 (10 µM) | 0 | 0 | 0 | 0 | 0 | 0
24 | COc1nc(-c2ccnc(NC(=O)C3CC3)c2)sc1C(N)=O [GSK-3β inhibitor 2] (10 µM) | 0 | 0 | 0 | 0 | 0 | 0
25 | C=C[C@H]1[C@H](O[C@@H]2O[C@H](CO)[C@@H](O)[C@H](O)[C@H]2OC(=O)c2c(O)cc(O)cc2-c2cccc(O)c2)OC=C2C(=O)OCC[C@H]21 [Amarogentin] (10 µM) | 0 | 0 | 0 | 0 | 0 | 0
26 | Nc1n[nH]c2cc(-c3ccc(=O)n(Cc4cccc(Cl)c4)c3)ccc12 (10 µM) | 0 | 0 | 0 | 0 | 0 | 0
27 | C[C@@H]1COCCN1c1cc(=O)n2c(n1)N(Cc1cncc(Cl)c1)[C@H](C(F)(F)F)CC2 (10 µM) | 0 | 0 | 0 | 0 | 0 | 0
28 | Nc1[nH]c(=O)nc2c1ncn2[C@@H]1O[C@H](CO)[C@@H](O)[C@H]1O [Crotonoside] (10 µM) | 0 | 0 | 0 | 0 | 0 | 0
29 | O=C(CO)N1CCC(c2n[nH]c(-c3ccc(Cl)cc3)c2-c2ccncn2)CC1 (10 µM) | 0 | 0 | 0 | 0 | 0 | 0

3 compounds from above, ordered by number of heavy atoms, ascending.
Row | Structure (SMILES) | number of time points (YES1) | number of time points (ZAK) | number of time points (ZAP70) | number of time points (CDK4) | number of time points (CDK7) | number of time points (CDK9)
28 | Nc1[nH]c(=O)nc2c1ncn2[C@@H]1O[C@H](CO)[C@@H](O)[C@H]1O [Crotonoside] (10 µM) | 0 | 0 | 0 | 0 | 0 | 0
14 | CN1CC[C@H](c2c(O)cc(O)c3c(=O)cc(-c4ccc(C(F)(F)F)cc4Cl)oc23)[C@H]1CO [(2S,3R)-Voruciclib (hydrochloride)] (2.5 µM) | 0 | 0 | 0 | 0 | 1 | 0
20 | C=CC(=O)Nc1cccc(-n2c(=O)cc(C)c3cnc(Nc4ccc(OCCN(C)C)cc4OC)nc32)c1 (10 µM) | 0 | 0 | 0 | 0 | 0 | 0
